Measured values: publication PMC1479839 (BMC Biology, 2006)
Results are given in words; binding and its absence hold for the method and conditions named.

Amino acid sequences for entries named in this document (tags omitted). Residues count along the entry.
UniProt Q9HBE5, residues 20-232: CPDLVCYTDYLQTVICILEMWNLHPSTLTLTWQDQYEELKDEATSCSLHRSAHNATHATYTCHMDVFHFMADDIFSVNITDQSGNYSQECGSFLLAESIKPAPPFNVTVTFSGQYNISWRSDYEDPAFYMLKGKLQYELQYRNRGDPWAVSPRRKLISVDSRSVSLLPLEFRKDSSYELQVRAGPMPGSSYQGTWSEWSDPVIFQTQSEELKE

B1: IL-4 variant F82D (ligand, human, UniProt P05112 25-153, looked up)
chain: HKCDITLQEIIKTLNSLTEQKTLCTELTVTDIFAASKNTTEKETFCRAATVLRQFYSHHEKDTRCLGATAQQFHRHKQLIRDLKRLDRNLWGLAGLNSCPVKEANQSTLENFLERLKTIMREKYSKCSS
notes: interleukin 4, human; also called IL4-F82D; IL-4F82D
B2: IL-4 variant T13D (ligand, human, UniProt P05112 25-153, looked up)
chain: HKCDITLQEIIKDLNSLTEQKTLCTELTVTDIFAASKNTTEKETFCRAATVLRQFYSHHEKDTRCLGATAQQFHRHKQLIRFLKRLDRNLWGLAGLNSCPVKEANQSTLENFLERLKTIMREKYSKCSS
notes: interleukin 4, human; also called IL4-T13D; IL-4T13D

The molecules below were run against receptor ectodomain of IL-21R (UniProt Q9HBE5) (assay: SPR; BIAcore; direct binding of IL-4, T13D and F82D to the receptor subunits IL-13Rα1, γc and IL-21R alone; both purified).

binding, no binding:
human interleukin 4 (wild type) (from UniProt P05112 25-153) (ligand)
B1
B2
